Strings that start with PEPTIDE1 are HELM notation: dots part the residues, brackets hold end groups and non-standard residues.

The data set in a line: general procedure: solution-phase peptide synthesis; DCC; EDCI/HOBT/N-methylmorpholine.

Boc-Ist-Aip-Leu-Pro-OTMSe came in with a step yield (coupling step) of 83%.
H-Ist-Aip-Leu-Pro-OTMSe: under “late stage modification step”, the step yield stood at 87%.
For the setting “cyclisation step, on linear precursor”, “PEPTIDE1{[Cbz].[D-MeLeu].T.[Ist].[Aip].L.P.[Me2Tyr]}$PEPTIDE1,PEPTIDE1,3:R3-8:R2$$$V2.0” registered a cyclisation yield of 40%.

The values are drawn from patent publication US6380156B1 (The Board of Trustees of the University of Illnois, priority 1996, dated 2002).
